Measurements from the supplement of paper PMC10849652.
This is one part of the list.

Protein sequences, listed by entry. Tags and fused reporters are not part of them. Lines headed by an entry give the natural chain unless they say otherwise; changes in a name come on top.
UniProt O75879: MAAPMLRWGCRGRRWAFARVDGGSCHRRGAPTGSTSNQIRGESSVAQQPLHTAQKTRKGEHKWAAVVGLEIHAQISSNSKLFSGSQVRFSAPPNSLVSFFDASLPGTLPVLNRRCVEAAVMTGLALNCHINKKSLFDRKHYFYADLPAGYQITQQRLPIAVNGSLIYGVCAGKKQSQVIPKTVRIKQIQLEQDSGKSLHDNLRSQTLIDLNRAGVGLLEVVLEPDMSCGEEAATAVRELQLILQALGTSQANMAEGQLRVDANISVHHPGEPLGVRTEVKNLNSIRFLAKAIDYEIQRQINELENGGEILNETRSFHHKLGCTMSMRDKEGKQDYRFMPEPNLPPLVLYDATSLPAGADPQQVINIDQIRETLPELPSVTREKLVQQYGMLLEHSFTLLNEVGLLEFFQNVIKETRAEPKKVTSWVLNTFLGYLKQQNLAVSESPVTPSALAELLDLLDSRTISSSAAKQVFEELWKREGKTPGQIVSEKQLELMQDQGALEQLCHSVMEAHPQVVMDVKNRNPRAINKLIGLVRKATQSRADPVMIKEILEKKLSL
UniProt P27469: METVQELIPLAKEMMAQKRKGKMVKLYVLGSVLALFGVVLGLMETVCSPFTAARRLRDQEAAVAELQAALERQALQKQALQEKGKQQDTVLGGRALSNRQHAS
UniProt Q9BVM4: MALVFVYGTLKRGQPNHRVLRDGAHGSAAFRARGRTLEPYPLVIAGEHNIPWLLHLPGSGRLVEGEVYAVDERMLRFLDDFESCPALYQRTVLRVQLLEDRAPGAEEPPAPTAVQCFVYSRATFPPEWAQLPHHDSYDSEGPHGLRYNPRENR
UniProt Q9NXC2: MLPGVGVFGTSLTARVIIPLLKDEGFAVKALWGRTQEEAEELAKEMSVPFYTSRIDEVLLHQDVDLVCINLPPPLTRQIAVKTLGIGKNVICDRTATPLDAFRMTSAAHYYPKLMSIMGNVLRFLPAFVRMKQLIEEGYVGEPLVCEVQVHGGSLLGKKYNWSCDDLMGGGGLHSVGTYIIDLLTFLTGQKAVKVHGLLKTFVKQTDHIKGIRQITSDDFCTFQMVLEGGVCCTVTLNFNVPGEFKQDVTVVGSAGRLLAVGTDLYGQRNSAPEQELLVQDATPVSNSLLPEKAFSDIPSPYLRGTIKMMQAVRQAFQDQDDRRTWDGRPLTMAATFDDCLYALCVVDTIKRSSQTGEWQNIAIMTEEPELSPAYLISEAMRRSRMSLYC
UniProt O94915: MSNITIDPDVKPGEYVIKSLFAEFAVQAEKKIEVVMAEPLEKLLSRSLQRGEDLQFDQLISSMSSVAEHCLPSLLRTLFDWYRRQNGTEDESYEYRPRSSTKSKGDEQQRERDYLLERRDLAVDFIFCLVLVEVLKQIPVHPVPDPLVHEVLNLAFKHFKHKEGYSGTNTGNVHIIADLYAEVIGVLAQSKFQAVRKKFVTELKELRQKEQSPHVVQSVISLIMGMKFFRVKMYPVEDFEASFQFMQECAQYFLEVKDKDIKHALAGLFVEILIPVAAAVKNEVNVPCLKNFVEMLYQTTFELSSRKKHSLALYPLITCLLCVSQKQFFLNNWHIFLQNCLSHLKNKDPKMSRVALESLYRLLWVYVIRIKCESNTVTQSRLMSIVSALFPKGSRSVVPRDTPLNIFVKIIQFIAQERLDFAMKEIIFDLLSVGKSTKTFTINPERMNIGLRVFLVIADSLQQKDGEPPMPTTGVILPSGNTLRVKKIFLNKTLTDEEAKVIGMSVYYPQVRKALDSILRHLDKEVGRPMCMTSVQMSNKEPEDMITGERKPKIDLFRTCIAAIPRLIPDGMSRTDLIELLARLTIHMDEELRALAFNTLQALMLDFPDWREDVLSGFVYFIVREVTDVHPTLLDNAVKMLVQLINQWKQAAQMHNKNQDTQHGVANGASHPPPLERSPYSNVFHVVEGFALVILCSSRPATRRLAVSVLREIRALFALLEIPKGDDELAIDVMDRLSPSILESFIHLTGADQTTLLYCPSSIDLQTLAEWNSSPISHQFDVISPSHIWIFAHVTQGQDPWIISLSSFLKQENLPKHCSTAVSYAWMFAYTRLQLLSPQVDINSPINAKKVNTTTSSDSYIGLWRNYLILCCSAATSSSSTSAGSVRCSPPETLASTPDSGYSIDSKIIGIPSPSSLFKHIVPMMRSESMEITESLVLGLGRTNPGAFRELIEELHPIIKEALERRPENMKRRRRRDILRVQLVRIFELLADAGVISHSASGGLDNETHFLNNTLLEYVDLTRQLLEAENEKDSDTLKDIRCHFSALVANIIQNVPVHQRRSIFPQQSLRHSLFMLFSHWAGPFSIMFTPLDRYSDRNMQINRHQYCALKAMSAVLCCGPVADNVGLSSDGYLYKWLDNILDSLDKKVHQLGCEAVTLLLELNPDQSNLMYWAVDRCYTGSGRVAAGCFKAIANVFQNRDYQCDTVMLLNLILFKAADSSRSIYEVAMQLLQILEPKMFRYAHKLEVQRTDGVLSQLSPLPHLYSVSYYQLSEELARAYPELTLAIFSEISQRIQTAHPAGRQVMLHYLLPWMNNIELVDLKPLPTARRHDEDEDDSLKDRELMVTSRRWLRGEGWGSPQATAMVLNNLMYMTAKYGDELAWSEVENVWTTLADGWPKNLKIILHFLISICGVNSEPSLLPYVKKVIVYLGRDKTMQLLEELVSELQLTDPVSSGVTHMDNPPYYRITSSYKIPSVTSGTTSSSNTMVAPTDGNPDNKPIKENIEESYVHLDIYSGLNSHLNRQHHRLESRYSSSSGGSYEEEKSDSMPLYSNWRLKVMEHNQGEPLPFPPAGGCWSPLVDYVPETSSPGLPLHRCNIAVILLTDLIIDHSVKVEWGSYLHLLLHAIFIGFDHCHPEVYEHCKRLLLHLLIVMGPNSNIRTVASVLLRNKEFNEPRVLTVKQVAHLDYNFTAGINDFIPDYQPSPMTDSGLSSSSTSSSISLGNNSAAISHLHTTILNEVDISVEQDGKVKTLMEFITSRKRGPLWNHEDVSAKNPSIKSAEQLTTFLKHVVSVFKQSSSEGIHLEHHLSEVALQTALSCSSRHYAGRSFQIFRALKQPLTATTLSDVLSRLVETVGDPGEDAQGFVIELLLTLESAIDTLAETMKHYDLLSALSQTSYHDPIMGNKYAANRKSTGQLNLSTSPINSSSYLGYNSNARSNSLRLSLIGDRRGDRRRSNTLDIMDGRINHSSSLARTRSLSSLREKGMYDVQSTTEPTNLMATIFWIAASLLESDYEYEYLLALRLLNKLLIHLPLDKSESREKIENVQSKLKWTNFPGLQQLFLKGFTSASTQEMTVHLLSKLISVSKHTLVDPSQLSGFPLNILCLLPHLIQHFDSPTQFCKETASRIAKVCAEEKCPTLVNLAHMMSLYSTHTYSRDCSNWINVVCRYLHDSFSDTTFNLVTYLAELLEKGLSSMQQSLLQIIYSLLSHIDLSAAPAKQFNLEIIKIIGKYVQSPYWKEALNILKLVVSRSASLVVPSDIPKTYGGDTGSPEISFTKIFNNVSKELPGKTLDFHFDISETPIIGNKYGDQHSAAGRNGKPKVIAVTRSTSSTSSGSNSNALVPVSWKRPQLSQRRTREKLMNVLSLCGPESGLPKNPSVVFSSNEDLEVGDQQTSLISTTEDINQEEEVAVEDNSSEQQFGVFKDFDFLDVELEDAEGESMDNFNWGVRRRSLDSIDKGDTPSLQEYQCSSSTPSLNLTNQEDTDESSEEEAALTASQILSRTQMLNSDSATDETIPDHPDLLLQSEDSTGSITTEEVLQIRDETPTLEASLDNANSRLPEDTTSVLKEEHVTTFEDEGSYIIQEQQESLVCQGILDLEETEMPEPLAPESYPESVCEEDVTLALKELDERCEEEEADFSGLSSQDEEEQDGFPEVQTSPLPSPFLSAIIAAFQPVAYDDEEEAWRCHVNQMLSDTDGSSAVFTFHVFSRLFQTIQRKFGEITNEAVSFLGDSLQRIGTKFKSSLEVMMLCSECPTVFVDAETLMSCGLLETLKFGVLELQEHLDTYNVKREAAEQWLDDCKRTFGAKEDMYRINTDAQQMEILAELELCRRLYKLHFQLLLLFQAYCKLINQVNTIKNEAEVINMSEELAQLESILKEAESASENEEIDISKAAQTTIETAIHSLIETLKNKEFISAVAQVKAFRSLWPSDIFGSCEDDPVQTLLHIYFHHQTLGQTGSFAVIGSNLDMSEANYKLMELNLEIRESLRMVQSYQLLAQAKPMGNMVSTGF
UniProt Q5JV73, whole entry, looked up: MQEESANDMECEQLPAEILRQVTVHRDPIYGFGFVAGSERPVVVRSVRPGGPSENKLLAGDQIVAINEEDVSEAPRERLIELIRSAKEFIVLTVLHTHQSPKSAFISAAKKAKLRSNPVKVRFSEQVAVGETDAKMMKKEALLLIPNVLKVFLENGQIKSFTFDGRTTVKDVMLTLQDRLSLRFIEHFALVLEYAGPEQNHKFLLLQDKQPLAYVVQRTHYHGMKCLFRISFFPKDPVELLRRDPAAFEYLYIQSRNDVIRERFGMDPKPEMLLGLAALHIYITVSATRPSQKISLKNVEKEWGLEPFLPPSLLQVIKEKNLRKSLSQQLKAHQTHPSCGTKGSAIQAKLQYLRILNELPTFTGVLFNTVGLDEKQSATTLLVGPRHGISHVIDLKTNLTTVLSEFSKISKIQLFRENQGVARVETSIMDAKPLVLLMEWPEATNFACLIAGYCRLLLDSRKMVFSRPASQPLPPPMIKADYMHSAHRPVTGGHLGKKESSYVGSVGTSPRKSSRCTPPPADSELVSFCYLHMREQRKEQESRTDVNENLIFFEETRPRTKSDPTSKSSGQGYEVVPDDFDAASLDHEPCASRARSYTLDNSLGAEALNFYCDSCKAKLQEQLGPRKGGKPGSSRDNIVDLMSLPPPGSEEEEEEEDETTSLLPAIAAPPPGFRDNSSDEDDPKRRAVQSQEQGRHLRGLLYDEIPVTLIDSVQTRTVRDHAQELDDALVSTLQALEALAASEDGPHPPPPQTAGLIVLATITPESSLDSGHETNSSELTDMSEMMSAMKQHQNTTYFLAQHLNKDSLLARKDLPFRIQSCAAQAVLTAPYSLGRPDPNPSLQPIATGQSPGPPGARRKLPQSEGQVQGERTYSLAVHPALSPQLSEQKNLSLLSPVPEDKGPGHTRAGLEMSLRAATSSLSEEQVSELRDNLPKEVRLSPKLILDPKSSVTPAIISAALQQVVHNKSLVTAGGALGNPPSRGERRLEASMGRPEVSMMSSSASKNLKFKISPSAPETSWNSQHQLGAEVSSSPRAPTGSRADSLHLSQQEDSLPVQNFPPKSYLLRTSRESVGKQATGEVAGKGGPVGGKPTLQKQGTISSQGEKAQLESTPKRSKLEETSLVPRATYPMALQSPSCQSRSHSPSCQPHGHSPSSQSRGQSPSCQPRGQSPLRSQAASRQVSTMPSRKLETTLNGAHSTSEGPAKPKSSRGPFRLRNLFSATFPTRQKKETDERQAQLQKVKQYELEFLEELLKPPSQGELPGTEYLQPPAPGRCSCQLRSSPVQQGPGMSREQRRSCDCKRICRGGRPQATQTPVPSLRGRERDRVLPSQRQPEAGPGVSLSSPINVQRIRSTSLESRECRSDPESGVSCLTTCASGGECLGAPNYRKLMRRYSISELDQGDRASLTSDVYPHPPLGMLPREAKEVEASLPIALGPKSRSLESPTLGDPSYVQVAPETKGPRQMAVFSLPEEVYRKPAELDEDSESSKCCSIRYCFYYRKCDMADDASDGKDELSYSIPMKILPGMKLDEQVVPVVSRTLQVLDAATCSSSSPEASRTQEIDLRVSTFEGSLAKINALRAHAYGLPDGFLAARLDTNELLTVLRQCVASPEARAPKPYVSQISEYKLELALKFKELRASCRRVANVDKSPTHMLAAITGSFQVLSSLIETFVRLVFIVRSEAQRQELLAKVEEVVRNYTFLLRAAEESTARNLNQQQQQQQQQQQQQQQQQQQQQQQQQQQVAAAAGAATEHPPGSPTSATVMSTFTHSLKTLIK
UniProt Q9P0K8: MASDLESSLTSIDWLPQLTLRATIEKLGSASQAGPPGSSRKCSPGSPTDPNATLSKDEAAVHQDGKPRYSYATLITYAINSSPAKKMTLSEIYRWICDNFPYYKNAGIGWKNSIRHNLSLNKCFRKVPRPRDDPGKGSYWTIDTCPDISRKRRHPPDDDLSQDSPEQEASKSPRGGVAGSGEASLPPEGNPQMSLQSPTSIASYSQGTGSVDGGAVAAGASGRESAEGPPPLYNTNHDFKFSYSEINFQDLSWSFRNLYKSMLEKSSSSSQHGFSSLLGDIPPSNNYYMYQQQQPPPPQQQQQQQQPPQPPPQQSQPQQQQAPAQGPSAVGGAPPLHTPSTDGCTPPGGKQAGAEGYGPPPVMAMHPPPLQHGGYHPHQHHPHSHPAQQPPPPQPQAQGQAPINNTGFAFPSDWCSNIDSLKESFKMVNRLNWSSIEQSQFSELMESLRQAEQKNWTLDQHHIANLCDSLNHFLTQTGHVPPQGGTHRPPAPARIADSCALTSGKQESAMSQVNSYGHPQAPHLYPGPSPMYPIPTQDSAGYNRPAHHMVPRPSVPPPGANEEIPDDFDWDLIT

What was measured:
Experiment in all cases: log2 fold change, soluble protein after heating vs DMSO (PISA); higher = thermal stabilisation; K562 cells, 10 uM, 30 min; active = over 0.2 and 3.5 SD of the protein, either way, in both replicates (recomputed)
crizotinib = compound: C[C@@H](Oc1cc(-c2cnn(C3CCNCC3)c2)cnc1N)c1c(Cl)ccc(F)c1Cl [crizotinib]
How it was run: (§1)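 K562 cells at 2×10^6 cells/mL were exposed to 10 μM compound for 30 min, then aliquots were heated for 3 min across 48°C-58°C, pooled, and extracted in PBS containing 0.5% NP-40 at 4°C. The supernatant after 21,000xg for 90 min was taken as soluble protein and measured by TMTpro 16plex LC-MS/MS with channel sums equalised. Thermal stability is reported relative to control samples, with values from duplicates. Fold changes are given on a log2 scale.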

[1] = compound: C[C@@H]1COCCN1C2=NC(=NC(=C2)C3(CC3)S(=O)(=O)C)C4=C5C=CNC5=CC=C4
How it was run: as §1

[2] = compound: C[C@H](C1=CC=C(C=C1)C(=O)NC2=C3C=CNC3=NC=C2)N
How it was run: as §1

duvelisib = compound: C[C@H](Nc1ncnc2nc[nH]c12)c1cc2cccc(Cl)c2c(=O)n1-c1ccccc1 [duvelisib]
How it was run: as §1

gandotinib = compound: Cc1cc(Nc2cc(CN3CCOCC3)c3nc(C)c(Cc4ccc(Cl)cc4F)n3n2)n[nH]1 [gandotinib]
How it was run: as §1

tozasertib = compound: Cc1cc(Nc2cc(N3CCN(C)CC3)nc(Sc3ccc(NC(=O)C4CC4)cc3)n2)n[nH]1 [tozasertib]
How it was run: as §1

[3] = compound: Cc1cc(SCc2sc(-c3ccc(C(F)(F)F)cc3)nc2C)ccc1OCC(=O)O
How it was run: as §1

doramapimod = compound: Cc1ccc(-n2nc(C(C)(C)C)cc2NC(=O)Nc2ccc(OCCN3CCOCC3)c3ccccc23)cc1 [doramapimod]
How it was run: as §1

ispinesib = compound: Cc1ccc(C(=O)N(CCCN)[C@@H](c2nc3cc(Cl)ccc3c(=O)n2Cc2ccccc2)C(C)C)cc1 [ispinesib]
How it was run: as §1

bafetinib = compound: Cc1ccc(NC(=O)c2ccc(CN3CC[C@H](N(C)C)C3)c(C(F)(F)F)c2)cc1Nc1nccc(-c2cncnc2)n1 [bafetinib]
How it was run: as §1

[4] = compound: Cc1cccc(CC(=O)N2CCc3c2ccc(-c2cn(C)c4ncnc(N)c24)c3F)n1
How it was run: as §1

nilotinib = compound: Cc1cn(-c2cc(NC(=O)c3ccc(C)c(Nc4nccc(-c5cccnc5)n4)c3)cc(C(F)(F)F)c2)cn1 [nilotinib]
How it was run: as §1

[5] = compound: Cc1nc(Nc2n[nH]c3c2CN(C(=O)N[C@H](CN(C)C)c2ccccc2)C3(C)C)c2sccc2n1
How it was run: as §1

dasatinib = compound: Cc1nc(Nc2ncc(C(=O)Nc3c(C)cccc3Cl)s2)cc(N2CCN(CCO)CC2)n1 [dasatinib]
How it was run: as §1

[6] = compound: Cc1ncc(-c2ccnc(Nc3ccc(S(C)(=O)=O)cc3)n2)n1C(C)C
How it was run: as §1

[7] = compound: Cn1cc(-c2ccc3c(c2)CCN3C(=O)Cc2cccc(C(F)(F)F)c2)c2c(N)ncnc21
How it was run: as §1

[8] = compound: Cn1cc(-c2ccc3nnc(C(F)(F)c4ccc5ncccc5c4)n3n2)cn1
How it was run: as §1

tipifarnib = compound: Cn1cncc1[C@@](N)(c1ccc(Cl)cc1)c1ccc2c(c1)c(-c1cccc(Cl)c1)cc(=O)n2C [tipifarnib]
How it was run: as §1

mubritinib = compound: FC(F)(F)c1ccc(/C=C/c2nc(COc3ccc(CCCCn4ccnn4)cc3)co2)cc1 [mubritinib]
How it was run: as §1

[9] = compound: CS(=O)(=O)c1ccc(-c2cnc(N)c(C(=O)Nc3ccccc3)n2)cc1
How it was run: as §1

Measured: log2 fold change

GATC (UniProt O43716)
inactive: crizotinib 0.044 | [1] 0.146 | [2] -0.043 | duvelisib 0.21 | gandotinib 0 | tozasertib 0.034 | [3] -0.139 | doramapimod 0.012 | ispinesib 0.083 | bafetinib -0.146 | [4] -0.057 | nilotinib 0 | [5] 0.023 | dasatinib -0.039 | [6] 0.02 | [7] -0.06 | [8] 0.265 | tipifarnib 0.124 | mubritinib 0.002

GATB (UniProt O75879)
inactive: [9] 0.223 | crizotinib -0.072 | [1] 0.18 | duvelisib 0.202 | gandotinib -0.109 | tozasertib 0.188 | [3] 0.079 | doramapimod 0 | ispinesib 0.148 | [4] -0.147 | nilotinib -0.122 | [5] -0.115 | dasatinib -0.239 | [6] 0.025 | [8] 0.296 | tipifarnib -0.364 | mubritinib -0.049

FRY (UniProt Q5TBA9)
inactive: [9] 0.045 | [1] 0.003 | gandotinib -0.275 | tozasertib 0.068 | bafetinib 0.112 | [4] -0.247 | mubritinib 0.145

FZD1 (UniProt Q9UP38)
inactive: [9] 0.111 | [1] -0.082 | [2] -0.088 | bafetinib 0.045 | nilotinib -0.228 | [5] 0.627 | [6] 0.243 | [7] -0.012

G0S2 (UniProt P27469)
inactive: mubritinib -0.115

GEMIN8 (UniProt Q9NWZ8)
inactive: [1] -0.029 | [2] 0.262 | tozasertib 0.124 | nilotinib -0.088 | [5] -0.105 | [6] -0.186 | [7] -0.202 | tipifarnib -0.257

GDI2 (UniProt Q5SX86)
inactive: crizotinib 0.045 | [1] 0.111 | doramapimod 0.06 | ispinesib -0.23 | bafetinib 0.068 | [8] 0.178

G6PC3 (UniProt Q9BUM1)
inactive: nilotinib 0 | [5] 0.027 | [6] 0.092 | tipifarnib 0.251 | mubritinib 0.029

GGACT (UniProt Q9BVM4)
inactive: ispinesib 0.076 | [8] -0.06 | mubritinib 0.086

GFAP isoform 2 (UniProt P14136)
inactive: gandotinib -0.205 | [4] -0.289 | mubritinib -0.218

GFOD1 (UniProt Q9NXC2)
inactive: crizotinib -0.012 | [1] 0.03 | gandotinib 0.008 | doramapimod 0.232 | [4] -0.059 | tipifarnib 0.282

GDPGP1 (UniProt Q6ZNW5)
inactive: [2] 0.191 | duvelisib 0.047 | tozasertib 0.101 | [3] 0.111 | nilotinib 0.097 | [5] -0.042 | dasatinib 0.009 | [6] -0.081 | [7] -0.253 | tipifarnib -0.158 | mubritinib 0.335

GAL (UniProt P22466)
inactive: crizotinib -0.012 | doramapimod 0.009 | ispinesib 0.008 | bafetinib 0.194 | [8] -0.084

FRYL isoform 2 (UniProt O94915)
inactive: [1] 0.147 | [2] 0.064 | ispinesib -0.064 | [7] -0.08 | [8] -0.081 | tipifarnib 0.049

FRMPD3 (UniProt Q5JV73)
inactive: [1] -0.166 | [2] 0.55 | tozasertib -0.122 | ispinesib -0.132 | bafetinib -0.682 | [7] 0.064 | [8] 0.382

FOXJ2 (UniProt Q9P0K8)
inactive: [2] -0.072 | [7] 0.098

GAGE1 (UniProt Q13065)
inactive: nilotinib 0.076 | [5] 0.017 | [6] -0.195 | mubritinib 0.079

Pulled one by one from above (two):
GAL (UniProt P22466)
inactive: crizotinib -0.012 | doramapimod 0.009 | ispinesib 0.008 | bafetinib 0.194 | [8] -0.084

FOXJ2 (UniProt Q9P0K8)
inactive: [2] -0.072 | [7] 0.098

The list continues.

GANC (UniProt Q8TET4)
inactive: nilotinib 0.173 | [5] 0.093 | [6] 0.24

GDF15 (UniProt Q99988)
inactive: crizotinib 0.04 | [2] 0.103 | duvelisib -0.076 | tozasertib 0.131 | [3] 0.108 | doramapimod -0.008 | ispinesib 0.206 | bafetinib 0.098 | nilotinib 0.16 | [5] -0.02 | dasatinib 0.289 | [6] -0.163 | [7] -0.149 | [8] -0.188 | tipifarnib 0.102 | mubritinib -0.025
